Reference: PMC10740258
Results are given in words; binding and its absence hold for the method and conditions named. Binding seen in cells or lysates may run through a third protein. Binding calls can cover weak binding; strength is not graded here. Tags and fused reporters may be left off the sequences shown.

Biological target: T1, FLAG-Tagged human NUAK1 WT (human) (UniProt O60285)
T1 sequence: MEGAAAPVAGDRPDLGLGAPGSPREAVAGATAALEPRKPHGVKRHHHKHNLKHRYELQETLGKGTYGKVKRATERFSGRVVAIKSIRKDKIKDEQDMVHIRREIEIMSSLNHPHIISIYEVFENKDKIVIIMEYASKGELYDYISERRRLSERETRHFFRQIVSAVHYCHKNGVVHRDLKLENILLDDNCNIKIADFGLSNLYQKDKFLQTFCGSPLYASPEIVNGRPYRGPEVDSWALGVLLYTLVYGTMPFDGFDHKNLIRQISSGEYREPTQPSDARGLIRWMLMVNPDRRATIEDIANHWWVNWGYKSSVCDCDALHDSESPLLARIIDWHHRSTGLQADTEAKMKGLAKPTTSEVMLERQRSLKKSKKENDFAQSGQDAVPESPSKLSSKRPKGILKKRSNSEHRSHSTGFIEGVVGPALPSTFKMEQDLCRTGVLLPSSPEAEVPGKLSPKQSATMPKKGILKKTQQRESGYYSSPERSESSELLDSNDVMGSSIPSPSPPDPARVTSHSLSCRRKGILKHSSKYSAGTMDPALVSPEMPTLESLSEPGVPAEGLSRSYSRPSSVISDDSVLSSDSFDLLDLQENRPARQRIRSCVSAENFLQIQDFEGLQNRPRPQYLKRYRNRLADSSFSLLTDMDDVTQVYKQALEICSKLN
Test: proximity ligation; Duolink In Situ Red kit Mouse/Rabbit; MDA-MB-231 cells expressing HA-NUAK1, FLAG-NUAK1 or empty vector, serum-starved overnight and stimulated with EGF for 10 min; n = 3

binding: binds
Substance: Akt (endogenous) (human (endogenous in MDA-MB-231))
